# Data as given in the supplement of paper PMC12819154, “High-throughput peptide-centric local stability assay extends protein–ligand identification to membrane proteins, tissues and bacteria” (Nature Structural & Molecular Biology, 2025).
# Amino acid sequences for entries named in this document (tags omitted). A change or cut given only in a name is not applied to a line headed by its entry.
# UniProt Q9NQ29: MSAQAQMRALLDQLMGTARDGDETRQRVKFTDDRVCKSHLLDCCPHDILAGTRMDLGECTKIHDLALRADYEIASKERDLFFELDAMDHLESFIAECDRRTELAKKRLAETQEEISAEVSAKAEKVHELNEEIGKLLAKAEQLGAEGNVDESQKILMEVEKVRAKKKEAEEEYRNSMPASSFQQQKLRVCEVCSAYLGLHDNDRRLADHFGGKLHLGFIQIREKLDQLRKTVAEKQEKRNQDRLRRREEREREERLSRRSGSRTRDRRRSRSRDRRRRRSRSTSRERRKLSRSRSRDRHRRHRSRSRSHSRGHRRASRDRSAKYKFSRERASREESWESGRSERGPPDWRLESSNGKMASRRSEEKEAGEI
# UniProt Q9NVM6: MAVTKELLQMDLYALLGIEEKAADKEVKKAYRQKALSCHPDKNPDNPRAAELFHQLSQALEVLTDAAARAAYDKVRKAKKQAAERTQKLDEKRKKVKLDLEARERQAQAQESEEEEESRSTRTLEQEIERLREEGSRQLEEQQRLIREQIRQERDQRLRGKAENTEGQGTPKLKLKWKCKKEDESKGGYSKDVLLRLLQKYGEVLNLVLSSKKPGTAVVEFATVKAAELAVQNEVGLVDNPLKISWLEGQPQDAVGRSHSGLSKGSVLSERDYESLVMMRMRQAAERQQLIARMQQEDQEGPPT
# UniProt Q9NWT6: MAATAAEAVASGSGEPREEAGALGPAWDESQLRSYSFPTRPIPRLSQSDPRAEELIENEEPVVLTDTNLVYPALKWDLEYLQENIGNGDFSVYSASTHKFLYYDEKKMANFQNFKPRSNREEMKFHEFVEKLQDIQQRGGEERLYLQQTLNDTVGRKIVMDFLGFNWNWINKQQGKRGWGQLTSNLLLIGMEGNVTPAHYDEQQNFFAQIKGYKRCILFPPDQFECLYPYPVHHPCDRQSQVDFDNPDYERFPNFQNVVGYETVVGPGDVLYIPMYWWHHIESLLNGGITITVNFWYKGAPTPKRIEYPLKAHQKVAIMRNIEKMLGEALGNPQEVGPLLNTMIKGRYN
# UniProt Q9NP64: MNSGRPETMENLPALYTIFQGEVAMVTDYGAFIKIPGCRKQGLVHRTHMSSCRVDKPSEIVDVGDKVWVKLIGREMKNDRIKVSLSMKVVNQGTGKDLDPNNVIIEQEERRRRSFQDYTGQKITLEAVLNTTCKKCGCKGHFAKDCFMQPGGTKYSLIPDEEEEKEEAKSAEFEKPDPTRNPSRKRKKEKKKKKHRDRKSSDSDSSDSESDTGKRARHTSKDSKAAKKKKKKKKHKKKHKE
# UniProt Q9NSD4: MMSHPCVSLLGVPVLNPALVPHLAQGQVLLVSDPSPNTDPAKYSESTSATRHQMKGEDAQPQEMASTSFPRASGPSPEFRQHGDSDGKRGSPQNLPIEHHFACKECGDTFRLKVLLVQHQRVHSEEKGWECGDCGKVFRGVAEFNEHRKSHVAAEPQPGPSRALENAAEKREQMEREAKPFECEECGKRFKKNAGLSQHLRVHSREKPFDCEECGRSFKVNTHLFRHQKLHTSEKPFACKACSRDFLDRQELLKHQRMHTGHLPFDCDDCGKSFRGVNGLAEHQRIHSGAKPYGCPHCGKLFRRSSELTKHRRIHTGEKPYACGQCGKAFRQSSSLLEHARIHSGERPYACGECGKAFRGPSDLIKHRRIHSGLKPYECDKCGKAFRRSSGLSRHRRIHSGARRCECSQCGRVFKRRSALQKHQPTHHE
# UniProt Q9NUT2: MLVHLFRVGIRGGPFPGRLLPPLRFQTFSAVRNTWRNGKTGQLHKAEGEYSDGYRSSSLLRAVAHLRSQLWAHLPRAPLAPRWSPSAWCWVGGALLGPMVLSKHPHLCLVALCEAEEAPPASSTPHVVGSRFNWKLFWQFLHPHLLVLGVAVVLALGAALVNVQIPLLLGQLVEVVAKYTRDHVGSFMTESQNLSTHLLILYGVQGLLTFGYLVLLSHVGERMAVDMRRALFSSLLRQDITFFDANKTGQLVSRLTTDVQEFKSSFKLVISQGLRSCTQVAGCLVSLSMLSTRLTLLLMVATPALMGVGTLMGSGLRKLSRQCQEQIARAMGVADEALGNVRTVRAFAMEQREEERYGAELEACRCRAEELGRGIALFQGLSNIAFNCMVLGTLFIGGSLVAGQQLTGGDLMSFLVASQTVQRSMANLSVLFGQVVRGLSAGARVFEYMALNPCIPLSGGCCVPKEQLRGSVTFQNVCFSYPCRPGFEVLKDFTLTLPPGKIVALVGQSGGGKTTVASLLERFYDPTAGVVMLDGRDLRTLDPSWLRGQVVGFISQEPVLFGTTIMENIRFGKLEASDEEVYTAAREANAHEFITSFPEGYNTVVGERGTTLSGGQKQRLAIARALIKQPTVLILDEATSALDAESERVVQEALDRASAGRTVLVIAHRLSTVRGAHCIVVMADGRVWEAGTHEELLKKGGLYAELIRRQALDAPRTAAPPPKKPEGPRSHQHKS
# UniProt Q9NR28: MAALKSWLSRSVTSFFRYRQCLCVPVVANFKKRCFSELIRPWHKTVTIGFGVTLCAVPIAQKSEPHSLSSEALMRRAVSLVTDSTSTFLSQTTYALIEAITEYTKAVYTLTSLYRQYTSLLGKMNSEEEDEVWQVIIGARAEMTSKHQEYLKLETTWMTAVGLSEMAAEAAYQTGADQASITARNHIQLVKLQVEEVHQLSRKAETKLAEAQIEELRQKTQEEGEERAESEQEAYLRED
# UniProt Q9NVG8: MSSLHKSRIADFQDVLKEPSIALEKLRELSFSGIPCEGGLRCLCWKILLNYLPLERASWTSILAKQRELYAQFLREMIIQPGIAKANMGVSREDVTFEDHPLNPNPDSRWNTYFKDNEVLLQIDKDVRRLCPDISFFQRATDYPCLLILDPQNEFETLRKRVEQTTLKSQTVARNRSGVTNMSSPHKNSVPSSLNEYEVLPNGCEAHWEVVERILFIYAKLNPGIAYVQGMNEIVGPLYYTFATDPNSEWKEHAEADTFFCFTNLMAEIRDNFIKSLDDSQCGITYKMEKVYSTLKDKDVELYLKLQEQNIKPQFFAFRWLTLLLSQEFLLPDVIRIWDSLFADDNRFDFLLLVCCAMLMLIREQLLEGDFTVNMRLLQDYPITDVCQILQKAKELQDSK
# UniProt Q9NRA8: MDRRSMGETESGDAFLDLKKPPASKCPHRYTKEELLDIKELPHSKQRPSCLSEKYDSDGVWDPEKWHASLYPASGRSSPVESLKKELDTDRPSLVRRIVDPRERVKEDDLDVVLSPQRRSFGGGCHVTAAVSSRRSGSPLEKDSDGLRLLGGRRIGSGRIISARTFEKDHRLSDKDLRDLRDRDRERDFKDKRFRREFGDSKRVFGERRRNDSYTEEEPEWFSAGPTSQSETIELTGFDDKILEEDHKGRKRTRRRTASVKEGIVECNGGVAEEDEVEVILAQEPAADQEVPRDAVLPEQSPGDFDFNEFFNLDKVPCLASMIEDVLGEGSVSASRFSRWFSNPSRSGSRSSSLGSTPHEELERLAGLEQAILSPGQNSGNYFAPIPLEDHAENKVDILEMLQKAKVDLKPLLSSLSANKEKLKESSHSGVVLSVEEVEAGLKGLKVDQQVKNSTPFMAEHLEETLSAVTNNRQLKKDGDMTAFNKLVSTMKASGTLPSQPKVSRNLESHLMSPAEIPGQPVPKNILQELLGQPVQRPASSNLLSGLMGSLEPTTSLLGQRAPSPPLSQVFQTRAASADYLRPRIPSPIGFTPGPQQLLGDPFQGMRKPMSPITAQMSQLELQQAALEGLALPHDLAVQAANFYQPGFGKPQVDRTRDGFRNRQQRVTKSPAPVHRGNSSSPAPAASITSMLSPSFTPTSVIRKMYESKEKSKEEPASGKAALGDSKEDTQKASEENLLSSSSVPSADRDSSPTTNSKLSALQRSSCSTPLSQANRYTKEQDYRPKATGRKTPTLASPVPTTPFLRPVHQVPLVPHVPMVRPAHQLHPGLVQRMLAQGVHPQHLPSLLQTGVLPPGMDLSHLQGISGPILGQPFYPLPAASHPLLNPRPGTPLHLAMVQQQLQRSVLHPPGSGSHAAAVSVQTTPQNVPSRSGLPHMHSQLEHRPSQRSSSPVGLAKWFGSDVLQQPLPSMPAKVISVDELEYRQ
# UniProt Q9NR22, whole entry, looked up: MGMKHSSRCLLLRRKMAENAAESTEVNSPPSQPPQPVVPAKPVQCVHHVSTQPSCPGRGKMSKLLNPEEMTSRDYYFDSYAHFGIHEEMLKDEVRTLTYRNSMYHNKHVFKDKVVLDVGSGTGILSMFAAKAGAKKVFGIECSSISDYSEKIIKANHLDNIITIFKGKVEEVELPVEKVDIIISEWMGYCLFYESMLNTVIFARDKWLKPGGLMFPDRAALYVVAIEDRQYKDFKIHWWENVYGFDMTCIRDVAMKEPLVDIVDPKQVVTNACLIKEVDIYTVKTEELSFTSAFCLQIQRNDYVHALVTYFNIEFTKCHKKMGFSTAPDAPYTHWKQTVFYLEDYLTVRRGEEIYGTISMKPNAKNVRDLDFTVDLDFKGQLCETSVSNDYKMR
# UniProt Q9NRW3: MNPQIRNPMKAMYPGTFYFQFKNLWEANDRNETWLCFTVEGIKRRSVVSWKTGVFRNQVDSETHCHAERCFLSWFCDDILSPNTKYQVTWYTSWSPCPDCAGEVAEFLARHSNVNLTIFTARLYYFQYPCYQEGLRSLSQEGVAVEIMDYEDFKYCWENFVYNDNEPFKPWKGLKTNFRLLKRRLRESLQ
# UniProt Q9NQ34: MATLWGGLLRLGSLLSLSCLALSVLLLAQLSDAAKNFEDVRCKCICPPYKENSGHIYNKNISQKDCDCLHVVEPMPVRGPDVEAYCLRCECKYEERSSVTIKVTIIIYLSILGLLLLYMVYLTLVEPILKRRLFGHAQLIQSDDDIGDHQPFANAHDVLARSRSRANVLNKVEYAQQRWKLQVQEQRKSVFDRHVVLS
# UniProt Q9NQU5: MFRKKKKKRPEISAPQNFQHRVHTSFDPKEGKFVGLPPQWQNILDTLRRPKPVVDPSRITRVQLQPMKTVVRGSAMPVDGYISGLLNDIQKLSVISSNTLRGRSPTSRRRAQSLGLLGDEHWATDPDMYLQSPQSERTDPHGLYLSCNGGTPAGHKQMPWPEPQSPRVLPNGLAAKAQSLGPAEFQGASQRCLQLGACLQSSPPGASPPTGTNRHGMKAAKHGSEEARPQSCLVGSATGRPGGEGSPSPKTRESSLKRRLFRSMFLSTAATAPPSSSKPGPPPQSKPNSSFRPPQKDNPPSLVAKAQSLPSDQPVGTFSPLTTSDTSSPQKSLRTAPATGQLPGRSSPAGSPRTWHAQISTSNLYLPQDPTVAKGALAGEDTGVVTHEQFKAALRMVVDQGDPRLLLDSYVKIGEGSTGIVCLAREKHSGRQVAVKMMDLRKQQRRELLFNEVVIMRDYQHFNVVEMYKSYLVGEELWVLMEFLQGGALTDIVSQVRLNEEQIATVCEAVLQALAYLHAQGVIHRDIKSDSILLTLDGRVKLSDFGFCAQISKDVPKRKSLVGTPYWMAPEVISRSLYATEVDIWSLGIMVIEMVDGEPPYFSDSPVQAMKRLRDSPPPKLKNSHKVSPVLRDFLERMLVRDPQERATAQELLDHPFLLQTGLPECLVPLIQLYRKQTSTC
# UniProt Q9NVW2: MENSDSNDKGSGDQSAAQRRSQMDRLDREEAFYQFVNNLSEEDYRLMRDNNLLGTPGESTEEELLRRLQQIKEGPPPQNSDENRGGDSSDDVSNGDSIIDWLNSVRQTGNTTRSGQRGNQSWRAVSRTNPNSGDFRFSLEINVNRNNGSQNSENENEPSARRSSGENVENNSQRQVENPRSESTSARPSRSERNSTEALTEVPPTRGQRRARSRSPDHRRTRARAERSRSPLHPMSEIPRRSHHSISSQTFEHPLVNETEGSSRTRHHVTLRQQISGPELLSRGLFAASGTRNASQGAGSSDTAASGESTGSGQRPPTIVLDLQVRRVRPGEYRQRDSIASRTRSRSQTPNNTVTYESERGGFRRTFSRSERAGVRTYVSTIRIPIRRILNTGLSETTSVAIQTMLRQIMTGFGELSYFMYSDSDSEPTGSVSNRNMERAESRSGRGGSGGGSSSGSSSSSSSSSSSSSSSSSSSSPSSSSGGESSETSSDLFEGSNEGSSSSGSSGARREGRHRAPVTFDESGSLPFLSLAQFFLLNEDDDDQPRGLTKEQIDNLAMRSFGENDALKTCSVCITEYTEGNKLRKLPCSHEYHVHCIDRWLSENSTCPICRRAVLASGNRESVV
# UniProt Q9NVA1: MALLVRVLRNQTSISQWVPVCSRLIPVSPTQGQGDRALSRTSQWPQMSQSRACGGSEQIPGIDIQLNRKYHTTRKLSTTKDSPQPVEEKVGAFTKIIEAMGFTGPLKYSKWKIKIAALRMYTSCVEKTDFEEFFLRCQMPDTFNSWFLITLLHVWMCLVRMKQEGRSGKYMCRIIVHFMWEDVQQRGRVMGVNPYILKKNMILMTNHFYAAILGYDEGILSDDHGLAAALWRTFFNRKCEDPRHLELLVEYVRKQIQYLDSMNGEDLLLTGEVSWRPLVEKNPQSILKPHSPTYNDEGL
# UniProt Q9NSK7: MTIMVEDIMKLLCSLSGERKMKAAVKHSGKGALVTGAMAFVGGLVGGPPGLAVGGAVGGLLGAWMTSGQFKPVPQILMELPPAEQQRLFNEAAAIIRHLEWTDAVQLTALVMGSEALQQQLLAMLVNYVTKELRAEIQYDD
# Some of the results follow. Small differences around the control level are noise.
# Compound: Cc1nc(Nc2ncc(C(=O)Nc3c(C)cccc3Cl)s2)cc(N2CCN(CCO)CC2)n1 [dasatinib]
# Assay: log2 fold change of tryptic peptide abundance, ligand vs vehicle (limited proteolysis) (log2 ratio); higher = more trypsin-susceptible (destabilized)
# Details: ligand concentration: 5 uM; sample: K562 cleared lysate
row,Target,log2 fold change
1,"LUC7L (peptide sequence: SERGPPDWR, peptide start residue: 342) (UniProt Q9NQ29)",0.348
2,"DNAJC17 (peptide sequence: DYESLVMMR, peptide start residue: 272) (UniProt Q9NVM6)",-0.142
3,"HIF1AN (peptide sequence: RIEYPLKAHQK, peptide start residue: 305) (UniProt Q9NWT6)",1.38
4,"ZCCHC17 (peptide sequence: DCFMQPGGTK, peptide start residue: 145) (UniProt Q9NP64)",-0.422
5,"ZNF275 (peptide sequence: GVNGLAEHQR, peptide start residue: 276) (UniProt Q9NSD4)",-0.232
6,"ABCB8 (peptide sequence: TVLVIAHR, peptide start residue: 684) (UniProt Q9NUT2)",0.0325
7,"DIABLO (peptide sequence: LAEAQIEELR, peptide start residue: 208) (UniProt Q9NR28)",-0.0703
8,"TBC1D13 (peptide sequence: ILLNYLPLER, peptide start residue: 47) (UniProt Q9NVG8)",-0.546
9,"EIF4ENIF1 (peptide sequence: AKVDLKPLLSSLSANK, peptide start residue: 405) (UniProt Q9NRA8)",-0.389
10,"PRMT8 (peptide sequence: EVDIYTVK, peptide start residue: 254) (UniProt Q9NR22)",0.0643
11,"APOBEC3C (peptide sequence: MNPQIRNPMK, peptide start residue: 1) (UniProt Q9NRW3)",0.0608
12,"TMEM9B (peptide sequence: SRANVLNKVEYAQQR, peptide start residue: 164) (UniProt Q9NQ34)",-0.858
13,"UniProt Q9NV06 (peptide sequence: EFVSASFDK, peptide start residue: 296)",0.303
14,"PAK6 (peptide sequence: RELLFNEVVIMR, peptide start residue: 360) (UniProt Q9NQU5)",0.0405
15,"RLIM (peptide sequence: RTFSRSER, peptide start residue: 365) (UniProt Q9NVW2)",-0.337
16,"UniProt Q9NVA1 (peptide sequence: VMGVNPYILK, peptide start residue: 189)",0.516
17,"C19orf12 (peptide sequence: LFNEAAAIIR, peptide start residue: 99) (UniProt Q9NSK7)",0.0781

# Reprinted: nos. 5–6
row,Target,log2 fold change
5,"ZNF275 (peptide sequence: GVNGLAEHQR, peptide start residue: 276) (UniProt Q9NSD4)",-0.232
6,"ABCB8 (peptide sequence: TVLVIAHR, peptide start residue: 684) (UniProt Q9NUT2)",0.0325
